US8247399B2, “Photoactive metal nitrosyls for blood pressure regulation and cancer therapy” (The Regents of the University of California, priority 2004, dated 2012)
At least one read-out could not be matched to a standard name with certainty.

Test: Photorelease (photodissociation) of NO from the metal nitrosyl in solution under illumination
Assay type: physicochemical
Conditions: aqueous solution, low intensity UV light
Description: FIG. 7(A) provides a plot of KNO values versus light power. Increase in A550 of a solution of [(PaPy3)Fe(NO)](ClO4)2 in MeCN upon illumination with a 60 W tungsten lamp (Patra et al., Inorg Chem, 42:6812-6823, 2003), KNO (×10^3 s^−1)=5.60±0.014.
FIG. 8(C) provides a plot of the electronic absorption spectrum of [(bpb)Ru(NO)(Cl)] (broken line) and [(Me2bqb)Ru(NO)(Cl)] (solid line) in DMF. Both nitrosyls are photolabile.
Dashed line: met-Mb; dash-dot line: reduced Mb; dotted line: a mixture of [(PaPy3)Ru(NO)](BF4)2 and reduced Mb (1.5:1) under ordinary light (20 min); solid line: same mixture exposed to UV (30 s). […] Dash-dot line: oxidized and dash line: reduced enzyme; dotted line: reduced enzyme plus [(PaPy3)Ru(NO)](BF4)2 under ordinary light (20 min); solid line: same mixture exposed to UV light for 30 s (Patra and Mascharak, Inorg Chem, 42:7363-7365, 2003, herein incorporated by reference).
As described herein, nitrosyls like [Fe(PaPy3)(NO)](CIO4)2 and [Mn(PaPy3)(NO)](BF4)2 are converted into the corresponding solvato species [M(PaPy3)(solv)]^2+ following NO loss. Clean isosbestic points in the multiple trace spectra (e.g., FIG. 6B and FIG. 6C) indicate that the [M(PaPy3)(NO)]^2+→[M(PaPy3)(solv)]^2+ transformation is likely devoid of other intermediates. […]

## [(PaPy3)Ru(NO)](BF4)2
  t1/2 of conversion into aqua complex (NO loss): 3 min
